The other results are listed elsewhere or left out. Hit calls seldom repeat between salt and free forms of one compound.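 Kinases, fused to nanoluciferase, were expressed in K562 cells; luminescence was measured every 4 h from 2 to 18 h as percent of control (DMSO = 100%, positive control = 0%). A time point is decreased if signal falls significantly (2 sigma). Hits were called by the authors by a rule that is not shown; the count of time points alone does not decide it.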
Columns and labels:
Test in all cases: kinase-Nluc reporter destabilization hit call (1 = scored as downregulated) (binary); higher = compound decreases kinase abundance
Details in all cases: K562; 2-18 h
ABL1 = ABL1 (UniProt P00519)
AKT1 = AKT1 (UniProt P31749)
ALK = ALK (UniProt Q9UM73)
ARAF = ARAF (UniProt P10398)
AURKA = AURKA (UniProt O14965)
AURKB = AURKB (UniProt Q96GD4)
AURKC = AURKC (UniProt Q9UQB9)
BLK = BLK (UniProt P51451)
BMX = BMX (UniProt P51813)
BRAF = BRAF (UniProt P15056)

Protein sequences, listed by entry. Tags and fused reporters are not part of them. Lines headed by an entry give the natural chain unless they say otherwise; changes in a name come on top.
UniProt P00519, whole entry: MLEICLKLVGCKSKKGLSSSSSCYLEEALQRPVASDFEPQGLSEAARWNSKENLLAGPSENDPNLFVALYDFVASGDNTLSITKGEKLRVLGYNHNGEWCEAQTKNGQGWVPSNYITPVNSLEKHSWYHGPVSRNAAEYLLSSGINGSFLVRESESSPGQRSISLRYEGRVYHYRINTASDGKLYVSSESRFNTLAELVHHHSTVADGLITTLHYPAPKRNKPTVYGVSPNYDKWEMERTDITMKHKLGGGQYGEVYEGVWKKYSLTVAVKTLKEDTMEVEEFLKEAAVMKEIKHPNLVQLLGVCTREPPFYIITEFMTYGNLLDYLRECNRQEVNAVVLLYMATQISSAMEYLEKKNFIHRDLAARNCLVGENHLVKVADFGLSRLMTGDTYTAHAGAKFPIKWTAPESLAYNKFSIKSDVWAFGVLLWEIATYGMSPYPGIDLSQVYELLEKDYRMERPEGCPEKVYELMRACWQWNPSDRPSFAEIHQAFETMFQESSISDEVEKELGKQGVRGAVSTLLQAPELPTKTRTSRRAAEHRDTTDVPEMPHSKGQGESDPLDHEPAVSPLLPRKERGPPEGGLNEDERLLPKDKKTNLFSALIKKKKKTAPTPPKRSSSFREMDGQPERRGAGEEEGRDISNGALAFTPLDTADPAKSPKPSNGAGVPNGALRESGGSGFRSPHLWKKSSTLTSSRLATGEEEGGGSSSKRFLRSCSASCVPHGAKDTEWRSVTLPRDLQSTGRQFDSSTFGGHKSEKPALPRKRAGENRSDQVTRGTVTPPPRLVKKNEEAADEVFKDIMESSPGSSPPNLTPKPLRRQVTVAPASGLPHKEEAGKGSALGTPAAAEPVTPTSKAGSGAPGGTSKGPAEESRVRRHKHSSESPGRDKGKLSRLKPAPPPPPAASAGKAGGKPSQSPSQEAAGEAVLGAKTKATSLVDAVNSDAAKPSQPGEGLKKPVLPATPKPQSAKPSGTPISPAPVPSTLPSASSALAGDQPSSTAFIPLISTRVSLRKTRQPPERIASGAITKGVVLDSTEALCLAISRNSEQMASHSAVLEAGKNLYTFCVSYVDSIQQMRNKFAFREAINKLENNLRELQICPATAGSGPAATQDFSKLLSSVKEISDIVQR
UniProt P31749: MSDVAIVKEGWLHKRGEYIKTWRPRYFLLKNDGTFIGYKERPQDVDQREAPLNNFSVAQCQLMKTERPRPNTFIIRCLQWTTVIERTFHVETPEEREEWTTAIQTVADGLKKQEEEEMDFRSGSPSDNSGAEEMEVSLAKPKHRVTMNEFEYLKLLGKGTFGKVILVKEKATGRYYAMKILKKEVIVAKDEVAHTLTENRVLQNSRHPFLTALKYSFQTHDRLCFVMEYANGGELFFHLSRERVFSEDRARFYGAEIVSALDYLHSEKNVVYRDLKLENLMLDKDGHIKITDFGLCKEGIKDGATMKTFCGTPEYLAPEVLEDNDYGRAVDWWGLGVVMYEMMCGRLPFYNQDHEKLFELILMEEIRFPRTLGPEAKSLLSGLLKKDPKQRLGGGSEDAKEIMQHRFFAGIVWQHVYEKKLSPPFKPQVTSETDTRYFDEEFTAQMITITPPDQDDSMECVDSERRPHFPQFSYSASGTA
UniProt P10398: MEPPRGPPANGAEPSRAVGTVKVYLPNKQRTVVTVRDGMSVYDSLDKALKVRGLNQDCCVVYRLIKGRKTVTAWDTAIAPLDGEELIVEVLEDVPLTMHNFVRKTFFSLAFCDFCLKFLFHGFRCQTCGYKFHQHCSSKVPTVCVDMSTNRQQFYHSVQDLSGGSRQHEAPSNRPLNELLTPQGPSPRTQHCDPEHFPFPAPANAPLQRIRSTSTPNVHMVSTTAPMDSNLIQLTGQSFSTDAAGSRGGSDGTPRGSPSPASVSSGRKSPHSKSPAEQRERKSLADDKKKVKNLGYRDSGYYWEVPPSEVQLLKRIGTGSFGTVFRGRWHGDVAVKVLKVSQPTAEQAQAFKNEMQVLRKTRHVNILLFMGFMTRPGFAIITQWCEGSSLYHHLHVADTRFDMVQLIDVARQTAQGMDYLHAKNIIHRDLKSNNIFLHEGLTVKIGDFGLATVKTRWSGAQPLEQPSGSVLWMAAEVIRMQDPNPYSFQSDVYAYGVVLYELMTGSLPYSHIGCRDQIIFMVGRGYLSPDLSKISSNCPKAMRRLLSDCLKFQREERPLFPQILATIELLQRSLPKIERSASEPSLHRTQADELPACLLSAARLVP
UniProt O14965: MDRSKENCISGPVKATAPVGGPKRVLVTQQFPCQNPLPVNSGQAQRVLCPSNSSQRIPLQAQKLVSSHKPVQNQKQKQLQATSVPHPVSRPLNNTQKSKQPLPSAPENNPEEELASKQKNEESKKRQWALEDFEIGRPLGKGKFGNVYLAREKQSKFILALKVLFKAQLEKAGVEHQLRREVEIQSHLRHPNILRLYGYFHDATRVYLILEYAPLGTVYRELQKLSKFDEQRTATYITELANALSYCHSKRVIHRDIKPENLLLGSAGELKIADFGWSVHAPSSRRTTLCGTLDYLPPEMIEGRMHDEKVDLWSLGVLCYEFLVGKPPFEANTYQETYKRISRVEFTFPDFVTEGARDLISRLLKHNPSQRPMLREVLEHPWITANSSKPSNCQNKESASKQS
UniProt Q96GD4, whole entry: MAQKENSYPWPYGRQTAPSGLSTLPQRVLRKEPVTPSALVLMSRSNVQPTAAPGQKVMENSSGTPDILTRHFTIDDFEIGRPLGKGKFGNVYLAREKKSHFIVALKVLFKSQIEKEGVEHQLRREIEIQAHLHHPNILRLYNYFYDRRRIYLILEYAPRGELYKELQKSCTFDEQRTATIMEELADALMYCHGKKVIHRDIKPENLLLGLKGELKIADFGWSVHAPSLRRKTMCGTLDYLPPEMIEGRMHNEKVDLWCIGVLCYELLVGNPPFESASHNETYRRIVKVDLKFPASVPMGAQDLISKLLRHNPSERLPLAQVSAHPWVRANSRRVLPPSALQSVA
UniProt Q9UQB9: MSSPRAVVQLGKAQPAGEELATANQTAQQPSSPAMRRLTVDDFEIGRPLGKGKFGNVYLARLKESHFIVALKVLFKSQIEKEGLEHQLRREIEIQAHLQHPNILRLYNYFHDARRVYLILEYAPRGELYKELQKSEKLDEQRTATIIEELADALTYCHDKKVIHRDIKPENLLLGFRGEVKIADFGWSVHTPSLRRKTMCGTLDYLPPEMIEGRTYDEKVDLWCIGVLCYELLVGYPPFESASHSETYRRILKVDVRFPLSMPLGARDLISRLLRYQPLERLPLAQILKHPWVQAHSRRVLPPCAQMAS
UniProt P51451: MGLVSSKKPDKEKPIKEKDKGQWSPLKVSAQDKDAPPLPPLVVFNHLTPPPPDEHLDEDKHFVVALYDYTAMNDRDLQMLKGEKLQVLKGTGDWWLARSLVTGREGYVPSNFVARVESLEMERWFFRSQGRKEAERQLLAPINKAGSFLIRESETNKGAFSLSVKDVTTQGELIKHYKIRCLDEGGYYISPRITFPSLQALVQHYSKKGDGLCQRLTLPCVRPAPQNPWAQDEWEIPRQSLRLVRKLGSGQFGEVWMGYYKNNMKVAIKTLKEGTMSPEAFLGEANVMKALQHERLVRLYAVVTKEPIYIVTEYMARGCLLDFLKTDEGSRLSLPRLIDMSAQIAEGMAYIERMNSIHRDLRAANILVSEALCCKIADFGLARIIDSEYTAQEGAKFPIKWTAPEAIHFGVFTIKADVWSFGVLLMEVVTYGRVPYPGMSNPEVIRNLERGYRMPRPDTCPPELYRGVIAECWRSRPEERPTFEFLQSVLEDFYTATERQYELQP
UniProt P51813: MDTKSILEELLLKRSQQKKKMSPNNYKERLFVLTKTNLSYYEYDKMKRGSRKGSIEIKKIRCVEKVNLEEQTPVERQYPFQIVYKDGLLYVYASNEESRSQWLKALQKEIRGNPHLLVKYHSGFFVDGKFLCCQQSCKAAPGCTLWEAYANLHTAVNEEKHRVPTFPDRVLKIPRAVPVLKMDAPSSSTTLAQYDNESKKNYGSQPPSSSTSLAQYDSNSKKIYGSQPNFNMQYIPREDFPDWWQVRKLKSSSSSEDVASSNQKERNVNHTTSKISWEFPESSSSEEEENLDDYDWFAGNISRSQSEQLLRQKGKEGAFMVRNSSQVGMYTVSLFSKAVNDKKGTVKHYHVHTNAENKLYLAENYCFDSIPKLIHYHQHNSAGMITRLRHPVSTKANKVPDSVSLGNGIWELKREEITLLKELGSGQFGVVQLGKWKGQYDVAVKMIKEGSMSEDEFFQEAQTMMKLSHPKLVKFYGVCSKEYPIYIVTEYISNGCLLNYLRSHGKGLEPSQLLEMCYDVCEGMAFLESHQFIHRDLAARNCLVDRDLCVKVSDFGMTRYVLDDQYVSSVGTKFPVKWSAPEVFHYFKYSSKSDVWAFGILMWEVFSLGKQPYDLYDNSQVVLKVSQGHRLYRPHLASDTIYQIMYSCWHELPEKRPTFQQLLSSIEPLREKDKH
UniProt P15056, whole entry, looked up: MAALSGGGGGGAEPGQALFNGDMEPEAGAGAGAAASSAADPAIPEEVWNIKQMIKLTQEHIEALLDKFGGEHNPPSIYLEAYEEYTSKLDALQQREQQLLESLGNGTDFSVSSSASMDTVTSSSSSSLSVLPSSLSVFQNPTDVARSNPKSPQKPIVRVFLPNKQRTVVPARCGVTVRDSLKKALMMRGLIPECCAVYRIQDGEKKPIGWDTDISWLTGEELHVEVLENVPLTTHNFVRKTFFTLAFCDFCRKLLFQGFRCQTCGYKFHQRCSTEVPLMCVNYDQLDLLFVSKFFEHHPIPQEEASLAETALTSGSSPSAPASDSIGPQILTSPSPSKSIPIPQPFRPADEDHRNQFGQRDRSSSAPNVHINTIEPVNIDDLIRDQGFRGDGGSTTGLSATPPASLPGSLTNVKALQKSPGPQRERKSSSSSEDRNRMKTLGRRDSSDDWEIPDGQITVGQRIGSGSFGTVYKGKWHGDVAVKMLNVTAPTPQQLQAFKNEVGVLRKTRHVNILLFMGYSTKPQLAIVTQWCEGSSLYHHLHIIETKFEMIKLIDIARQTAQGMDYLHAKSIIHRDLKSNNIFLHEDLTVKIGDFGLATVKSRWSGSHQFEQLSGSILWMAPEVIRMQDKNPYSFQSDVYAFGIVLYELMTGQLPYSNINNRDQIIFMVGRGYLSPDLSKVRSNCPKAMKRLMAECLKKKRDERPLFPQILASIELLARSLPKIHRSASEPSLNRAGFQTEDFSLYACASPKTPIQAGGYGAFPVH

Measured: kinase-Nluc reporter destabilization hit call

COc1ccc2c(c1O)OC(C)(C)c1c-2ccc2c1C(=O)N(c1ccc(C(=O)c3ccccc3)cc1)C2=O [Ampkinone] (10 µM)
inactive: ABL1 = 0 | AKT1 = 0 | ALK 0 | ARAF 0 | AURKA 0 | AURKB 0 | AURKC 0 | BLK 0 | BMX 0 | BRAF 0

Cc1cc(Nc2cc3ncccc3c(N[C@@H]3C[C@H]4CC[C@@H](C3)N4CCC#N)n2)n[nH]1 [Izencitinib] (10 µM)
inactive: ABL1 = 0 | AKT1 = 0 | ALK 0 | ARAF 0 | AURKA 0 | AURKB 0 | AURKC 0 | BLK 0 | BMX 0 | BRAF 0

CNc1nc(Nc2cnn(C3CCN(C4COC4)CC3F)c2Cl)ncc1C(F)(F)F (stereo not given) (10 µM)
inactive: ABL1 = 0 | AKT1 = 0 | ALK 0 | ARAF 0 | AURKA 0 | AURKB 0 | AURKC 0 | BLK 0 | BMX 0 | BRAF 0

Cn1cc(Nc2nccc(N3C[C@H]4CC[C@@H](C3)N4C(=O)[C@@H]3CC3(F)F)n2)cn1 (10 µM)
inactive: ABL1 = 0 | AKT1 = 0 | ALK 0 | ARAF 0 | AURKA 0 | AURKB 0 | AURKC 0 | BLK 0 | BMX 0 | BRAF 0

OC(COc1ccc(C(F)(F)F)cc1)CN(Cc1ccccc1)Cc1ccccc1 (stereo not given) (2.5 µM)
inactive: ABL1 = 0 | AKT1 = 0 | ALK 0 | ARAF 0 | AURKA 0 | AURKB 0 | AURKC 0 | BLK 0 | BMX 0 | BRAF 0

COc1c(NC(=O)C(=O)c2ccc(OCCN3CCOCC3)c3ccccc23)cc(C(C)(C)C)cc1NS(C)(=O)=O (2.5 µM)
inactive: ABL1 = 0 | AKT1 = 0 | ALK 0 | ARAF 0 | AURKA 0 | AURKB 0 | AURKC 0 | BLK 0 | BMX 0 | BRAF 0
